# Data as given in publication PMC4230410.
# Results are given in words; binding and its absence hold for the method and conditions named.
# B1: Arabidopsis thaliana PTR1 (protein, UniProt Q9M390 1-570)
# chain: MEEKDVYTQDGTVDIHKNPANKEKTGNWKACRFILGNECCERLAYYGMGTNLVNYLESRLNQGNATAANNVTNWSGTCYITPLIGAFIADAYLGRYWTIATFVFIYVSGMTLLTLSASVPGLKPGNCNADTCHPNSSQTAVFFVALYMIALGTGGIKPCVSSFGADQFDENDENEKIKKSSFFNWFYFSINVGALIAATVLVWIQMNVGWGWGFGVPTVAMVIAVCFFFFGSRFYRLQRPGGSPLTRIFQVIVAAFRKISVKVPEDKSLLFETADDESNIKGSRKLVHTDNLKFFDKAAVESQSDSIKDGEVNPWRLCSVTQVEELKSIITLLPVWATGIVFATVYSQMSTMFVLQGNTMDQHMGKNFEIPSASLSLFDTVSVLFWTPVYDQFIIPLARKFTRNERGFTQLQRMGIGLVVSIFAMITAGVLEVVRLDYVKTHNAYDQKQIHMSIFWQIPQYLLIGCAEVFTFIGQLEFFYDQAPDAMRSLCSALSLTTVALGNYLSTVLVTVVMKITKKNGKPGWIPDNLNRGHLDYFFYLLATLSFLNFLVYLWISKRYKYKKAVGRAH
# Molecular target: Arabidopsis thaliana PTR1 (Arabidopsis thaliana) (UniProt Q9M390)
# Test: SEC; Superdex 200 size exclusion column, final step of purification; membranes solubilised in 1% DDM; GFP-His tag cleaved off; both purified
binder,measurement,value
B1,binding,no binding
